At least one compound was matched to its structure with a doubt left.
System: human prostate cancer LNCaP derived xenograft tumors
Experiment: Inhibition of growth of human prostate cancer LNCaP derived xenograft tumors of nude mice
Conditions: 150 mg/kg/d p.o., treatment for 28 days

SMILES: C[C@]12CC[C@H](O)CC1=CC[C@@H]1[C@@H]2CC[C@]2(C)C(c3cccnc3)=CC[C@@H]12 [AA, Abiraterone]
- tumor growth: significantly inhibited
